Measured values as given in patent US20250304621A1, “POLYPEPTIDE FOR SPECIFICALLY BLOCKING BINDING OF ACVR1C TO GREM1 AND USE THEREOF” (The Seventh Affiliated Hospital, Sun Yat-Sen University, priority 2024, published 2025).
Results are given in words; binding and its absence hold for the method and conditions named. In cells and extracts the contact can be indirect. Here binding means that the protein was enriched with, or labelled near, the bait; the list need not be complete. Tags and fused reporters may be left off the sequences shown.

Target: T1, ACVR1C (activin receptor type-1C) (human) (UniProt Q8NER5)
T1 sequence (looked up): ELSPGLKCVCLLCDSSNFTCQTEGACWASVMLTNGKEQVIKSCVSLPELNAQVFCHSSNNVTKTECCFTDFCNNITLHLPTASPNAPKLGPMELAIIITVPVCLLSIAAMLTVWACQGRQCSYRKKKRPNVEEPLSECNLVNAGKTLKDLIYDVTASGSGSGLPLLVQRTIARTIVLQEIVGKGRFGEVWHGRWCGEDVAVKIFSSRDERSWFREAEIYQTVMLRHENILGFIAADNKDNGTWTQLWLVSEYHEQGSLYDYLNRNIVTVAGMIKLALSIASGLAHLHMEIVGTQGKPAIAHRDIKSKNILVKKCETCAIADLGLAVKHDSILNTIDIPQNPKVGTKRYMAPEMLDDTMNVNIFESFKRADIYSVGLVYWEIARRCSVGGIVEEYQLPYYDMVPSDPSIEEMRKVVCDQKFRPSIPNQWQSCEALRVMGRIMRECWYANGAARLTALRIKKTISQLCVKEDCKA
Test: anti-HA pull-down from HCT116 cells, band identified by mass spectrometry

B1: Ha-tagged GREM1 (ligand, not shown: small tags and cut ends)
chain: KKKGSQGAIPPPDKAQHNDSEQTQSPQQPGSRNRGRGQGRGTAMPGEEVLESSQEALHVTERKYLKRDWCKTQPLKQTIHEEGCNSRTIINRFCYGQCNSFYIPRHIRKEEGSFQSCSFCKPKKFTTMMVTLNCPELQPPTKKKRVTRVKQCRCISIDLD
binding: binds
